In this assay the target is YC-MYCΔZIP. The assay can be described thus: split reporter; split-YFP BiFC in living HeLa cells, transient transfection with DsRed as transfection control; after 2 days 1.5 hours at 30°C for maturation; confocal microscopy.

These are yes or no findings as the source states them, for the method shown. In cells and extracts the contact can be indirect.

B1: YN-ARTD10 (enzyme, UniProt Q53GL7 1-1025)
chain: MVAMAEAEAGVAVEVRGLPPAVPDELLTLYFENRRRSGGGPVLSWQRLGCGGVLTFREPADAERVLAQADHELHGAQLSLRPAPPRAPARLLLQGLPPGTTPQRLEQHVQALLRASGLPVQPCCALASPRPDRALVQLPKPLSEADVRVLEEQAQNLGLEGTLVSLARVPQARAVRVVGDGASVDLLLLELYLENERRSGGGPLEDLQRLPGPLGTVASFQQWQVAERVLQQEHRLQGSELSLVPHYDILEPEELAENTSGGDHPSTQGPRATKHALLRTGGLVTALQGAGTVTMGSGEEPGQSGASLRTGPMVQGRGIMTTGSGQEPGQSGTSLRTGPMGSLGQAEQVSSMPMGSLEHEGLVSLRPVGLQEQEGPMSLGPVGSAGPVETSKGLLGQEGLVEIAMDSPEQEGLVGPMEITMGSLEKAGPVSPGCVKLAGQEGLVEMVLLMEPGAMRFLQLYHEDLLAGLGDVALLPLEGPDMTGFRLCGAQASCQAAEEFLRSLLGSISCHVLCLEHPGSARFLLGPEGQHLLQGLEAQFQCVFGTERLATATLDTGLEEVDPTEALPVLPGNAHTLWTPDSTGGDQEDVSLEEVRELLATLEGLDLDGEDWLPRELEEEGPQEQPEEEVTPGHEEEEPVAPSTVAPRWLEEEAALQLALHRSLEPQGQVAEQEEAAALRQALTLSLLEQPPLEAEEPPDGGTDGKAQLVVHSAFEQDVEELDRALRAALEVHVQEETVGPWRRTLPAELRARLERCHGVSVALRGDCTILRGFGAHPARAARHLVALLAGPWDQSLAFPLAASGPTLAGQTLKGPWNNLERLAENTGEFQEVVRAFYDTLDAARSSIRVVRVERVSHPLLQQQYELYRERLLQRCERRPVEQVLYHGTTAPAVPDICAHGFNRSFCGRNATVYGKGVYFARRASLSVQDRYSPPNADGHKAVFVARVLTGDYGQGRRGLRAPPLRGPGHVLLRYDSAVDCICQPSIFVIFHDTQALPTHLITCEHVPRASPDDPSGLPGRSPDT
As to B1, the binding entry is on record as “no binding”.

The values are drawn from publication PMC3508985.
